Measured values: patent US20240066057A1, “METHOD FOR TREATING PAIN USING VANADIUM COMPOUNDS” (HUNAN FANGSHENGTAI MEDICAL TECHNOLOGY CO., LTD, priority 2020, published 2024)
Some of these results come from one statement about several compounds together. For some assays here: At least one structure is not confirmed: it was looked up by name or label, or the drawing left a doubt.

Tests used:
[1] = tested on: Kunming mice with CFA-induced inflammation; assay: Effective concentration and plateau experiment of vanadium compounds, tail vein injection, mouse pain model; assay type: in vivo; details: based on vanadium
[2] = tested on: Kunming mice with CFA-induced inflammation; assay: Von Frey test (50% paw withdrawal threshold) in CFA-induced inflammatory pain mouse model; assay type: in vivo; details: Example 5; intraperitoneal injection; C 1.9 mg/kg (atomic mass of vanadium); S about 250 mg/kg
Experimental: 10 μL of complete Freund's adjuvant (CFA) was injected into the left hind foot of mice (♂ Kunming mice, 22 g to 40 g) to induce inflammation. 24 hours after the injection, a Von Frey test was performed to determine a pain threshold. That is, under the guidance of Dixon's Up-Down method, Von Frey fibers were used to induce the mechanical paw withdrawal of the mice, and data were collected and calculated to obtain their 50% paw withdrawal thresholds (paw withdrawal threshold or PWT for short, i.e. pain threshold). Mice were then divided into different groups, including a normal saline group, a positive control group, and a drug group, which were intraperitoneally injected with normal saline, an aspirin (acetylsalicylic acid, or ASA) solution and a solution of compound for testing respectively. A Von Frey test was then performed to monitor changes in pain threshold.
Mice were divided into three groups: a blank control group, an aspirin (ASA) group, and a drug group. In blank control group, the mice were given normal saline, deionized water or deionized water containing ≤5% DMSO at the same volume as that in the drug group. In ASA group, the mice were given the known analgesic drug ASA as the positive control for tested compounds. In drug group, the mice were given compounds for testing accordingly. […]

Row | Molecule | Plateau dose [1] [mg/kg] | Onset time [2] [min]
1 | O=S(=O)([O-])[O-].[O]=[V+2] [Solution G, Vanadyl sulfate] | ≥ 0.49 | –
2 | Cis-bis(maltolato)methoxyoxovanadium (V) [Solution C] | – | 15 to 30
